Measurements reported in PubChem BioAssay AID1224826 (NIAID, 2016)

Assay: 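Knock-downs that raise or lower Tnf reporter signal after endotoxin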 (primary screen)
Cell system: RAW264.7 G9 macrophages from mouse bearing reporters for p65 (GFP) and the Tnf promoter (mCherry)
Reagent: siRNA pool against mouse genes, 100 nM
Duration: 16 h of LPS stimulation, after 2 days of siRNA transfection
Conditions: bacterial lipopolysaccharide (Salmonella minnesota R595), 10 ng/ml
Measurement: 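Nuclear mCherry signal of the Tnf promoter reporter measured by imaging after background removal, scaled to each plate median and turned into robust z-scores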
Direction: Tnf reporter robust z-score: higher = stronger Tnf promoter reporter signal after LPS
Hit rule: 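Called active when robust z-score is at most -1.3, matching the median of the Tlr4 knock-down control, or over 3; control wells and wells with under 50 cells never active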
Meaning of the calls: active = Tnf reporter clearly lowered or raised; inactive = no clear change in Tnf reporter
Here is a random part of about 17,000 reagents. About 1,110 of them (6.6%) count as active. 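Active means lowered or raised reporter signal; replicate intensities are raw and not normalised per plate.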 Not all columns of the deposit are shown. No sequences are given here.

| Target gene | Tnf reporter robust z-score | fewer than 50 cells in well | activity call |
| --- | --- | --- | --- |
| Snd1 | 1.26 | enough cells in well | inactive |
| Nek7 | -0.3 | enough cells in well | inactive |
| Xlr4c | – | fewer than 50 cells per well; well left out of calls | inactive |
| Kcnab1 | -0.57 | enough cells in well | inactive |
| Serinc1 | – | fewer than 50 cells per well; well left out of calls | inactive |
| Skap2 | 0.16 | enough cells in well | inactive |
| C530043A13Rik | 1.39 | enough cells in well | inactive |
| H2-Q10 | 0.52 | enough cells in well | inactive |
| Sparcl1 | -0.53 | enough cells in well | inactive |
| Phykpl | – | fewer than 50 cells per well; well left out of calls | inactive |
| Zfp185 | 2.03 | enough cells in well | inactive |
| Grb7 | -0.96 | enough cells in well | inactive |
| Rab9b | 1.59 | enough cells in well | inactive |
| Rfpl4 | 2.01 | enough cells in well | inactive |
| Spink8 | 0.12 | enough cells in well | inactive |
| Psma2 | 0.29 | enough cells in well | inactive |
| Sptbn4 | 3.11 | enough cells in well | active |
| Gp6 | -0.64 | enough cells in well | inactive |
| Tal1 | -0.28 | enough cells in well | inactive |
| Lrrc24 | 3.18 | enough cells in well | active |
| Ext2 | 0.51 | enough cells in well | inactive |
| Or9a2 | 0.41 | enough cells in well | inactive |
| Arhgap17 | 2.04 | enough cells in well | inactive |
| Btbd6 | 1.75 | enough cells in well | inactive |
| Or6e1 | – | fewer than 50 cells per well; well left out of calls | inactive |
| P2rx1 | 0.38 | enough cells in well | inactive |
| Bcl7a | -0.92 | enough cells in well | inactive |
| Dtnbp1 | -0.33 | enough cells in well | inactive |
| Rab8b | 0.37 | enough cells in well | inactive |
| Cipc | – | fewer than 50 cells per well; well left out of calls | inactive |
| Krt32 | 0.29 | enough cells in well | inactive |
| Prss44 | 0.86 | enough cells in well | inactive |
| Irx3os | 0.39 | enough cells in well | inactive |
| Or52i2 | – | fewer than 50 cells per well; well left out of calls | inactive |
| Kng1 | -0.17 | enough cells in well | inactive |
| Ube2e1 | 0.15 | enough cells in well | inactive |
| Ptx3 | -0.65 | enough cells in well | inactive |
| Or12e10 | -0.77 | enough cells in well | inactive |
| Leng9 | -0.99 | enough cells in well | inactive |
| Kcne4 | -1.48 | enough cells in well | active |
